One molecule from PMC4381336 can be followed below.

This experiment deals with T1, p120-catenin (mouse (endogenous in mILC-1)) (UniProt P30999).
T1 sequence: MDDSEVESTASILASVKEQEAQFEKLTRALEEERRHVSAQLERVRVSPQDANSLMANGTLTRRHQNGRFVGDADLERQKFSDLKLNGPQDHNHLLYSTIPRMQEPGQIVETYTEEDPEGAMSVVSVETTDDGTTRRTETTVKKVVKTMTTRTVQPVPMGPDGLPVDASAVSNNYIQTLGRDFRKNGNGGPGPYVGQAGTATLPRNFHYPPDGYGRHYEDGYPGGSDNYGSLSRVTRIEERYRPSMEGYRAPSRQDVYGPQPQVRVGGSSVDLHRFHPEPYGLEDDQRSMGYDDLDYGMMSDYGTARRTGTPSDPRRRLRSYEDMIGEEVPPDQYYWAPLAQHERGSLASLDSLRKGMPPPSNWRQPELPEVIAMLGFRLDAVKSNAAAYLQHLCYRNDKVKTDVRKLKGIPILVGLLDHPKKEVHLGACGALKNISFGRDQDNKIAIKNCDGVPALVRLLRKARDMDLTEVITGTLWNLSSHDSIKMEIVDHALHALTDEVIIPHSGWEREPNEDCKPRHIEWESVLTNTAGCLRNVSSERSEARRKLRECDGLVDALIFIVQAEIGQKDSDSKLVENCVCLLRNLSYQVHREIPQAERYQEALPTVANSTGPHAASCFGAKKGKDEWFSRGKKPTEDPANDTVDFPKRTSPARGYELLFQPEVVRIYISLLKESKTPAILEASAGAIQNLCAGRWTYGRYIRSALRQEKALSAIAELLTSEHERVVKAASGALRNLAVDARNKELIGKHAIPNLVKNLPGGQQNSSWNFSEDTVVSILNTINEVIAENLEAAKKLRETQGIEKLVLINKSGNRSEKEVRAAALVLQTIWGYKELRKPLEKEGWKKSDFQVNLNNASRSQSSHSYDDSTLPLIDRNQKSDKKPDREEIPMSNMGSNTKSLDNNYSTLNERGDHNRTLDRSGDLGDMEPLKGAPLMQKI
Description: co-IP; p120 immunoprecipitated from mILC-1 lysate with mouse anti-p120 (BD Biosciences 610134) on Protein A/G agarose beads, 2 hours; lysis buffer 20 mM Tris-HCl pH 7.5, 150 mM NaCl, 1 mM EDTA, 1 mM EGTA, 1% Triton X-100, 5% glycerol; Kaiso detected by western blot; mouse IgG as control. On the technique in general: A western blot detects proteins with antibodies after separation by electrophoresis.

No constants are given. Whether binding was seen depends on the method and setting. In cells and extracts the contact can be indirect. Some binding calls cover weakened binding; strength is not graded here.

B1: Kaiso (protein, UniProt Q8BN78 1-671)
chain: MESRKLISATDIQYSASLLNSLNEQRGHGLFCDVTVIVEDRKFRAHRNILSASSTYFHQLFSVAGQVVELSFIRAEIFAEILNYIYSSKVVRVRADLLDELIKSGQLLGVKFIAELGVPLSQVKSISGTEQDGTAETLPSSSSDKSLDMEKSKDEAQDNGATVMPIITESFSLSAEDNEMKKIIVTDSDDDDDDDVIFCSEILPAKEDLPSNNTATQVQPNPASVAISEVTPCASNNSPPVTNITPTQLPTPVNQATLSQTQGSEELLVSSASTHLTPNIILLNQAPLTAPPSASSSLPNHMSSSVNVLVQNQQTPNSAVLTGNKAEEEEEIIDDDDDIISSSPDSAVSNTSLVPQADNSKSTTLDGSLTQKMQIPVLPQEPPSNSLKISDVITRNTNDPGLRSKHVMEGQKIITLDTATEIEGLSTGCKVYANIGEDTYDIVIPVKDDPDGGEAKLDNELPKTSGSEPPNKRMKVKHDDHYELIVDGRVYYICIVCKRSYVCLTSLRRHFNIHSWEKKYQCRYCDKVFPLAEYRTKHEIHHTGERRYQCLTCGKSFINYQFMSSHIKSVHSQDPSGDSKLYRLHPCKSLQIRQYAYLSNKSSAMPVMKDDAVGYKVDAGKEPPVGTTSTPPQNKSTFWEDIFIQQENDSIFKQNVTDGSTEFEFIIPESY
Consider B1, for which the binding entry is “binds”.
